Assay [1] concerns the target T1, hUBE2O T995A mutant (human) (UniProt Q9C0C9).
T1 sequence: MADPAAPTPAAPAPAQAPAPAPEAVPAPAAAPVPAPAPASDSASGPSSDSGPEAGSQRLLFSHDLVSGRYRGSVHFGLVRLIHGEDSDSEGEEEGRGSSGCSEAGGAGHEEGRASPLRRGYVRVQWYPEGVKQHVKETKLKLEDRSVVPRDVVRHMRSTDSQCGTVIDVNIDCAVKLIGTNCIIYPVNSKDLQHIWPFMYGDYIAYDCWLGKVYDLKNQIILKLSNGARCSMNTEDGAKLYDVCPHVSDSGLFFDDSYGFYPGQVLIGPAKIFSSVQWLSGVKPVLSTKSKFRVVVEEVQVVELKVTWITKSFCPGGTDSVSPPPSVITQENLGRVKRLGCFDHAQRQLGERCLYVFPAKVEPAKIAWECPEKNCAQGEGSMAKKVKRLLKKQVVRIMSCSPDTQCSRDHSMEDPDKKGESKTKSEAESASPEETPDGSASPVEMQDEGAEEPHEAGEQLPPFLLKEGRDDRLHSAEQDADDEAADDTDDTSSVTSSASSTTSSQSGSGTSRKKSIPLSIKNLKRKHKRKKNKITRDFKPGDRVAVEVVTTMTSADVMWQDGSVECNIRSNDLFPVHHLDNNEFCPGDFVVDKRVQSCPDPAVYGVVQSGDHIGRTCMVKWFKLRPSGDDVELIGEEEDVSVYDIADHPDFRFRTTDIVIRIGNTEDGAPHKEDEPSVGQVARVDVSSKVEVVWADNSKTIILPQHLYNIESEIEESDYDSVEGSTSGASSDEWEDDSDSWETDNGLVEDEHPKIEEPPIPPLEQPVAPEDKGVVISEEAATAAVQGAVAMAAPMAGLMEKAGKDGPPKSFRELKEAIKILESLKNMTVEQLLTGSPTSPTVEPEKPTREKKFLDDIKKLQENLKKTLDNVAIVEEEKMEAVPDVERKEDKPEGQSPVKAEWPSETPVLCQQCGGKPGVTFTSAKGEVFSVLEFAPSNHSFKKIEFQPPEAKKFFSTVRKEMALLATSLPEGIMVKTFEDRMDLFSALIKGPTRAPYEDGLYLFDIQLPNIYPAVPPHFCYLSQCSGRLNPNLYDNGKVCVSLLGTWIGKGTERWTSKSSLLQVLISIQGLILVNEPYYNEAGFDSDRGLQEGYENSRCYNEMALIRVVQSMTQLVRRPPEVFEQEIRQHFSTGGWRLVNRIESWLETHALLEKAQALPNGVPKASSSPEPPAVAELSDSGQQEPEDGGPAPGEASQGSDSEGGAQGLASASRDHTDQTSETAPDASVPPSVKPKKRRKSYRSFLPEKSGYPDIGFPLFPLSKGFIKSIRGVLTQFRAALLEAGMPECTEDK
Kind of assay: co-IP; lysates of transfected cells (0.5% NP40, 150 mM NaCl, 50 mM Tris pH 8.0, 1 mM EDTA, 10% glycerol), anti-Flag M2 affinity gel 90 min at 4 °C, 3 washes, immunoblotting.

The chains behind the UniProt entries cited, without tags or fusion partners.
UniProt P26231: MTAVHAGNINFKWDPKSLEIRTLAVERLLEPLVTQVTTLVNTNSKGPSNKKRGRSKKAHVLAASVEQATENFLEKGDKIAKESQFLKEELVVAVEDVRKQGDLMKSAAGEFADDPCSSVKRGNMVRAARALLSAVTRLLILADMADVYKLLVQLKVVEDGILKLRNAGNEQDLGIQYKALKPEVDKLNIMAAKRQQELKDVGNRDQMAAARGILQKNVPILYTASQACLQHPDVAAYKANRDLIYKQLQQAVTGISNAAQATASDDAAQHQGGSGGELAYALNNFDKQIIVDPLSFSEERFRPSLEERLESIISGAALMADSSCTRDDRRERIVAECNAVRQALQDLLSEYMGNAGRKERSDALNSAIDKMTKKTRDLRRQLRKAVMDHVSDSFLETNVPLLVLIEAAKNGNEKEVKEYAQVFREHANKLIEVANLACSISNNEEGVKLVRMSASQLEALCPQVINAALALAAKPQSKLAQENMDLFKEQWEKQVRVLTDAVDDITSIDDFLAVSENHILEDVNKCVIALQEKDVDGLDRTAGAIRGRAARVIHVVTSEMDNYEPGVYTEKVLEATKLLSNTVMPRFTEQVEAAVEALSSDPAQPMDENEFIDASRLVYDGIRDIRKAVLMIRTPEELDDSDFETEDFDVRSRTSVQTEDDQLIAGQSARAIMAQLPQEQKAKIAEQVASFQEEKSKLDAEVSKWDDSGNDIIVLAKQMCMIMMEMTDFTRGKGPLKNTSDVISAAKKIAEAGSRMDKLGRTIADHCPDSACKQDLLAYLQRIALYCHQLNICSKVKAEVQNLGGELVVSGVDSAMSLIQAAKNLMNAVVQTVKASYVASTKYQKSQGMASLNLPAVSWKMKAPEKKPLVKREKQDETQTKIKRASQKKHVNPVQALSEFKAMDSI

Assay [2] deals with T2, full-length hUBE2O (FL-hUBE2O), wild type, expressed in transfected cells (human) (UniProt Q9C0C9).
T2 sequence: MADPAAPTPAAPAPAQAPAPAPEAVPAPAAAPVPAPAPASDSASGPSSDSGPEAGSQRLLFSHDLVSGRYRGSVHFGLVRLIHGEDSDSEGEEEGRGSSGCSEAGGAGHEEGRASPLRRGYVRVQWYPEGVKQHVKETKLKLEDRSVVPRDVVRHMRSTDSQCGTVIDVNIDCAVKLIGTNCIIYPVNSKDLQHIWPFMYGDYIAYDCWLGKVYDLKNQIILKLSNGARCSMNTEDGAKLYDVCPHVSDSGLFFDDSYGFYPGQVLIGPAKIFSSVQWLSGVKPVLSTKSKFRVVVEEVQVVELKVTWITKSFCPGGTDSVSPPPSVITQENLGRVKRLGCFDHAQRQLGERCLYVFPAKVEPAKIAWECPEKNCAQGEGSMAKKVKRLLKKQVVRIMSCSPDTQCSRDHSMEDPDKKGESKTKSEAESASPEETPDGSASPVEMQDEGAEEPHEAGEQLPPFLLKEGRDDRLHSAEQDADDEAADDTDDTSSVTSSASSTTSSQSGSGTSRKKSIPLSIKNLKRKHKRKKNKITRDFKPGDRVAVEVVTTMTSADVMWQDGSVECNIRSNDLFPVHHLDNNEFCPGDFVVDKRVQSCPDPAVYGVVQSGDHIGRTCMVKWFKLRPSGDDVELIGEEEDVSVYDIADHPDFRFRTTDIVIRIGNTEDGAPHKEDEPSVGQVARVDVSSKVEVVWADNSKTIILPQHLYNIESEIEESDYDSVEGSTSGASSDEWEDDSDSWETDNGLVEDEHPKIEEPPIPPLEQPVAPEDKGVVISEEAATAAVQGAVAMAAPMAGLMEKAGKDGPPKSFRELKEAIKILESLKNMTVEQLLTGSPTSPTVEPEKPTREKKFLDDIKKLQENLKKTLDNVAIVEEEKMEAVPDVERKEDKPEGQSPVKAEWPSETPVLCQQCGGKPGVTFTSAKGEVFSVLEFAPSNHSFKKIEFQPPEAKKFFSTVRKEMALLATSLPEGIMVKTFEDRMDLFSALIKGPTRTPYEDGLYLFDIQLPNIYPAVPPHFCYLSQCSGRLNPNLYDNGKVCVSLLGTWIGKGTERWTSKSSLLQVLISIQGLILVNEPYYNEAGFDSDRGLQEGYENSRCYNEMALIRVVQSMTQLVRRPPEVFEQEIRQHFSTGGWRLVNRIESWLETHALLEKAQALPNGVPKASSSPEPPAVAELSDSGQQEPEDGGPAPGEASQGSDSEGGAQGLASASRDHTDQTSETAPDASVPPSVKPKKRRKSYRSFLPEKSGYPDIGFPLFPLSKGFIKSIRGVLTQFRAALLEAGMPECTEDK
The description is as above.

No constants are given. Whether binding was seen depends on the method and setting. Binding seen in cells or lysates may run through a third protein. Some entries that bind do so weakly or less than the wild type. Tags and fused reporters may be left off the sequences shown.

Regarding “CTNNA1 (HA-mCTNNA1) (from UniProt P26231 1-906)”, the binding result in assay [1] and in assay [2] was “binds” in each case.

B1: RECQL4 (HA-RECQL4) (protein, UniProt O94761 1-1208)
chain: MERLRDVRERLQAWERAFRRQRGRRPSQDDVEAAPEETRALYREYRTLKRTTGQAGGGLRSSESLPAAAEEAPEPRCWGPHLNRAATKSPQSTPGRSRQGSVPDYGQRLKANLKGTLQAGPALGRRPWPLGRASSKASTPKPPGTGPVPSFAEKVSDEPPQLPEPQPRPGRLQHLQASLSQRLGSLDPGWLQRCHSEVPDFLGAPKACRPDLGSEESQLLIPGESAVLGPGAGSQGPEASAFQEVSIRVGSPQPSSSGGEKRRWNEEPWESPAQVQQESSQAGPPSEGAGAVAVEEDPPGEPVQAQPPQPCSSPSNPRYHGLSPSSQARAGKAEGTAPLHIFPRLARHDRGNYVRLNMKQKHYVRGRALRSRLLRKQAWKQKWRKKGECFGGGGATVTTKESCFLNEQFDHWAAQCPRPASEEDTDAVGPEPLVPSPQPVPEVPSLDPTVLPLYSLGPSGQLAETPAEVFQALEQLGHQAFRPGQERAVMRILSGISTLLVLPTGAGKSLCYQLPALLYSRRSPCLTLVVSPLLSLMDDQVSGLPPCLKAACIHSGMTRKQRESVLQKIRAAQVHVLMLTPEALVGAGGLPPAAQLPPVAFACIDEAHCLSQWSHNFRPCYLRVCKVLRERMGVHCFLGLTATATRRTASDVAQHLAVAEEPDLHGPAPVPTNLHLSVSMDRDTDQALLTLLQGKRFQNLDSIIIYCNRREDTERIAALLRTCLHAAWVPGSGGRAPKTTAEAYHAGMCSRERRRVQRAFMQGQLRVVVATVAFGMGLDRPDVRAVLHLGLPPSFESYVQAVGRAGRDGQPAHCHLFLQPQGEDLRELRRHVHADSTDFLAVKRLVQRVFPACTCTCTRPPSEQEGAVGGERPVPKYPPQEAEQLSHQAAPGPRRVCMGHERALPIQLTVQALDMPEEAIETLLCYLELHPHHWLELLATTYTHCRLNCPGGPAQLQALAHRCPPLAVCLAQQLPEDPGQGSSSVEFDMVKLVDSMGWELASVRRALCQLQWDHEPRTGVRRGTGVLVEFSELAFHLRSPGDLTAEEKDQICDFLYGRVQARERQALARLRRTFQAFHSVAFPSCGPCLEQQDEERSTRLKDLLGRYFEEEEGQEPGGMEDAQGPEPGQARLQDWEDQVRCDIRQFLSLRPEEKFSSRAVARIFHGIGSPCYPAQVYGQDRRFWRKYLHLSFHALVGLATEELLQVAR
As to B1, the binding entry in assay [1] and in assay [2] was “binds” each time.

B2: hUBE2O T995A mutant (enzyme, UniProt Q9C0C9 1-1292)
chain: MADPAAPTPAAPAPAQAPAPAPEAVPAPAAAPVPAPAPASDSASGPSSDSGPEAGSQRLLFSHDLVSGRYRGSVHFGLVRLIHGEDSDSEGEEEGRGSSGCSEAGGAGHEEGRASPLRRGYVRVQWYPEGVKQHVKETKLKLEDRSVVPRDVVRHMRSTDSQCGTVIDVNIDCAVKLIGTNCIIYPVNSKDLQHIWPFMYGDYIAYDCWLGKVYDLKNQIILKLSNGARCSMNTEDGAKLYDVCPHVSDSGLFFDDSYGFYPGQVLIGPAKIFSSVQWLSGVKPVLSTKSKFRVVVEEVQVVELKVTWITKSFCPGGTDSVSPPPSVITQENLGRVKRLGCFDHAQRQLGERCLYVFPAKVEPAKIAWECPEKNCAQGEGSMAKKVKRLLKKQVVRIMSCSPDTQCSRDHSMEDPDKKGESKTKSEAESASPEETPDGSASPVEMQDEGAEEPHEAGEQLPPFLLKEGRDDRLHSAEQDADDEAADDTDDTSSVTSSASSTTSSQSGSGTSRKKSIPLSIKNLKRKHKRKKNKITRDFKPGDRVAVEVVTTMTSADVMWQDGSVECNIRSNDLFPVHHLDNNEFCPGDFVVDKRVQSCPDPAVYGVVQSGDHIGRTCMVKWFKLRPSGDDVELIGEEEDVSVYDIADHPDFRFRTTDIVIRIGNTEDGAPHKEDEPSVGQVARVDVSSKVEVVWADNSKTIILPQHLYNIESEIEESDYDSVEGSTSGASSDEWEDDSDSWETDNGLVEDEHPKIEEPPIPPLEQPVAPEDKGVVISEEAATAAVQGAVAMAAPMAGLMEKAGKDGPPKSFRELKEAIKILESLKNMTVEQLLTGSPTSPTVEPEKPTREKKFLDDIKKLQENLKKTLDNVAIVEEEKMEAVPDVERKEDKPEGQSPVKAEWPSETPVLCQQCGGKPGVTFTSAKGEVFSVLEFAPSNHSFKKIEFQPPEAKKFFSTVRKEMALLATSLPEGIMVKTFEDRMDLFSALIKGPTRAPYEDGLYLFDIQLPNIYPAVPPHFCYLSQCSGRLNPNLYDNGKVCVSLLGTWIGKGTERWTSKSSLLQVLISIQGLILVNEPYYNEAGFDSDRGLQEGYENSRCYNEMALIRVVQSMTQLVRRPPEVFEQEIRQHFSTGGWRLVNRIESWLETHALLEKAQALPNGVPKASSSPEPPAVAELSDSGQQEPEDGGPAPGEASQGSDSEGGAQGLASASRDHTDQTSETAPDASVPPSVKPKKRRKSYRSFLPEKSGYPDIGFPLFPLSKGFIKSIRGVLTQFRAALLEAGMPECTEDK
On to B2, for which the binding result in assay [1] is given as “binds”.

The record behind these values is publication PMC12835413, “Allosteric zinc inhibition and interdomain regulation govern the catalytic mechanism of the E3-independent ubiquitin-conjugating enzyme hUBE2O” (The Journal of Biological Chemistry, 2025).
